Assay results from patent US20110182992A1, “PEPTIDES AND PEPTIDE MIMETICS TO TREAT PATHOLOGIES ASSOCIATED WITH EYE DISEASE” (priority 2008, published 2011).
At least one compound was matched to its structure with a doubt left.

Tested on: ApoE null mice
Experiment: HDL function after D-4F and/or statin in the drinking water
Format: in vivo, mouse
Conditions: 0.05 mg/ml in the drinking water for 24 hours

For CC[C@H](C)C(=O)O[C@H]1C[C@H](O)C=C2C=C[C@H](C)[C@H](CC[C@@H](O)C[C@@H](O)CC(=O)O)[C@H]21 [pravastatin], the “HDL function, statin alone” value was “did not improve HDL function”.
